For three molecules, binding results are on record in PMC5494183.

Protein sequences, listed by entry. Tags and fused reporters are not part of them.
UniProt P46935: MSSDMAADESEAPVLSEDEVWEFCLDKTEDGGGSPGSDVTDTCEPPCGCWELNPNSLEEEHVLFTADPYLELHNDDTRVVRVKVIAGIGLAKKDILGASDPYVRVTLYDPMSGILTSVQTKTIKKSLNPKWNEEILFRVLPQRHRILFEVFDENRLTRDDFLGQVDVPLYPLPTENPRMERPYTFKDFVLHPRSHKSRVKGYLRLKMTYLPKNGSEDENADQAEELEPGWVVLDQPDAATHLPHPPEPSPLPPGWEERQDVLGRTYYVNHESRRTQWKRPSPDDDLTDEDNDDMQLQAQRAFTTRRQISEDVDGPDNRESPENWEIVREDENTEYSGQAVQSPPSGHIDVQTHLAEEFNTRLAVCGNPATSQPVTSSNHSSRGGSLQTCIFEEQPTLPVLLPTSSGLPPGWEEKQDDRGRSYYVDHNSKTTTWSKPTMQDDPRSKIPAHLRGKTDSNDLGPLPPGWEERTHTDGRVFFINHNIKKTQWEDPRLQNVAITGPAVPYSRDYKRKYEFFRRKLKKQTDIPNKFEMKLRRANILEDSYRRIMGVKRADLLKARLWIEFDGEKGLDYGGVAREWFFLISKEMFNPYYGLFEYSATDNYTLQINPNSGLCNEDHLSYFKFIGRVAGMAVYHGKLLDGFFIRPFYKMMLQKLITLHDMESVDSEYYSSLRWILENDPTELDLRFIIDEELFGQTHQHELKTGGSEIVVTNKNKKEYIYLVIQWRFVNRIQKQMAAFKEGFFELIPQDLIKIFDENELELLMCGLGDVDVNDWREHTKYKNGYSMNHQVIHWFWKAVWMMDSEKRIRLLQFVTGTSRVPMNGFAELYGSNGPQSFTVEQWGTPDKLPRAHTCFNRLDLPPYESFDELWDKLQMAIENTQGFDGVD
UniProt P29341: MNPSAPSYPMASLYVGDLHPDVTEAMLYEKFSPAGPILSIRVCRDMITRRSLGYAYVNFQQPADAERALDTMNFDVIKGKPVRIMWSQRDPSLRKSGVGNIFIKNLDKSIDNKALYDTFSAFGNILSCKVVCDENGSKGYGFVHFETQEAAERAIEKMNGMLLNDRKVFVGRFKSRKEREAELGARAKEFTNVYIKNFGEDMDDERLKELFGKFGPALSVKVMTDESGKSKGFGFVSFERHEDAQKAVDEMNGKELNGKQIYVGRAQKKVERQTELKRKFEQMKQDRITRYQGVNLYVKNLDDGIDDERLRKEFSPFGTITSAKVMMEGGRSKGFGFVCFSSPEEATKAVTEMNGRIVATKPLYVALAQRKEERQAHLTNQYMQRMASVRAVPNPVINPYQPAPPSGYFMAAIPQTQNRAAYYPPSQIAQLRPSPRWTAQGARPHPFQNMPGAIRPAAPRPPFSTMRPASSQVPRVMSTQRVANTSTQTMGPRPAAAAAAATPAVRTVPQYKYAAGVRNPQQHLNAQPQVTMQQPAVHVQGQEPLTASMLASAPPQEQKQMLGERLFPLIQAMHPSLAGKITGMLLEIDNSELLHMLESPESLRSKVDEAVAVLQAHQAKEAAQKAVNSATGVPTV

Results are given in words; binding and its absence hold for the method and conditions named. Binding seen in cells or lysates may run through a third protein. Some results given as binding are weak or reduced against the parent protein; the word gives no strength.

This assay addresses NEDD4, endogenous in germline stem cells (mouse (endogenous in GSCs)) (UniProt P46935). Kind of assay: co-IP; IP with an anti-NEDD4 antibody from lysates of GSCs incubated at 33 °C or 42 °C for 20 min, endogenous proteins; western blot. In general terms: In western blotting, separated proteins are transferred to a membrane and probed.

As for “PABP1, endogenous in germline stem cells (from UniProt P29341 1-636)”, the binding result is on record as “binds”.

B1: DAZL, endogenous in germline stem cells (protein, UniProt Q64368 1-298)
chain: MSATTSEAPNSAVSREASTQSSSATTSQGYVLPEGKIMPNTVFVGGIDVRMDETEIRSFFARYGSVKEVKIITDRTGVSKGYGFVSFYNDVDVQKIVESQINFHGKKLKLGPAIRKQNLCTYHVQPRPLIFNPPPPPQFQSVWSSPNAETYMQPPTMMNPITQYVQAYPPYPSSPVQVITGYQLPVYNYQMPPQWPAGEQRSYVIPPAYTTVNYHCSEVDPGADILPNECSVHDAAPASGNGPQKKSVDRSIQTVVSCLFNPENRLRNSLVTQDDYFKDKRVHHFRRSRAVLKSDHLC
Consider B1, for which the binding result was “binds”.

B2: TIAR, endogenous in germline stem cells (protein, UniProt P70318 1-392)
chain: MMEDDGQPRTLYVGNLSRDVTEVLILQLFSQIGPCKSCKMITEQPDSRRVNSSVGFSVLQHTSNDPYCFVEFYEHRDAAAALAAMNGRKILGKEVKVNWATTPSSQKKDTSNHFHVFVGDLSPEITTEDIKSAFAPFGKISDARVVKDMATGKSKGYGFVSFYNKLDAENAIVHMGGQWLGGRQIRTNWATRKPPAPKSTQETNTKQLRFEDVVNQSSPKNCTVYCGGIASGLTDQLMRQTFSPFGQIMEIRVFPEKGYSFVRFSTHESAAHAIVSVNGTTIEGHVVKCYWGKESPDMTKNFQQVDYSQWGQWSQVYGNPQQYGQYMANGWQVPPYGVYGQPWNQQGFGVDQSPSAAWMGGFGAQPPQGQAPPPVIPPPNQAGYGMASFPTQ
For the molecule B2, the binding result is reported as “no binding”.
